Data as given in patent publication US10442791B2, “DNA-PK inhibitors” (Vertex Pharmaceuticals Incorporated, priority 2012, dated 2019).
pKi: −log10 of the molar value. Some results were stated once for a whole list of compounds, not compound by compound.

Sequences of proteins named here, by UniProt entry; tags and fusion partners are left off.
UniProt P78527, whole entry: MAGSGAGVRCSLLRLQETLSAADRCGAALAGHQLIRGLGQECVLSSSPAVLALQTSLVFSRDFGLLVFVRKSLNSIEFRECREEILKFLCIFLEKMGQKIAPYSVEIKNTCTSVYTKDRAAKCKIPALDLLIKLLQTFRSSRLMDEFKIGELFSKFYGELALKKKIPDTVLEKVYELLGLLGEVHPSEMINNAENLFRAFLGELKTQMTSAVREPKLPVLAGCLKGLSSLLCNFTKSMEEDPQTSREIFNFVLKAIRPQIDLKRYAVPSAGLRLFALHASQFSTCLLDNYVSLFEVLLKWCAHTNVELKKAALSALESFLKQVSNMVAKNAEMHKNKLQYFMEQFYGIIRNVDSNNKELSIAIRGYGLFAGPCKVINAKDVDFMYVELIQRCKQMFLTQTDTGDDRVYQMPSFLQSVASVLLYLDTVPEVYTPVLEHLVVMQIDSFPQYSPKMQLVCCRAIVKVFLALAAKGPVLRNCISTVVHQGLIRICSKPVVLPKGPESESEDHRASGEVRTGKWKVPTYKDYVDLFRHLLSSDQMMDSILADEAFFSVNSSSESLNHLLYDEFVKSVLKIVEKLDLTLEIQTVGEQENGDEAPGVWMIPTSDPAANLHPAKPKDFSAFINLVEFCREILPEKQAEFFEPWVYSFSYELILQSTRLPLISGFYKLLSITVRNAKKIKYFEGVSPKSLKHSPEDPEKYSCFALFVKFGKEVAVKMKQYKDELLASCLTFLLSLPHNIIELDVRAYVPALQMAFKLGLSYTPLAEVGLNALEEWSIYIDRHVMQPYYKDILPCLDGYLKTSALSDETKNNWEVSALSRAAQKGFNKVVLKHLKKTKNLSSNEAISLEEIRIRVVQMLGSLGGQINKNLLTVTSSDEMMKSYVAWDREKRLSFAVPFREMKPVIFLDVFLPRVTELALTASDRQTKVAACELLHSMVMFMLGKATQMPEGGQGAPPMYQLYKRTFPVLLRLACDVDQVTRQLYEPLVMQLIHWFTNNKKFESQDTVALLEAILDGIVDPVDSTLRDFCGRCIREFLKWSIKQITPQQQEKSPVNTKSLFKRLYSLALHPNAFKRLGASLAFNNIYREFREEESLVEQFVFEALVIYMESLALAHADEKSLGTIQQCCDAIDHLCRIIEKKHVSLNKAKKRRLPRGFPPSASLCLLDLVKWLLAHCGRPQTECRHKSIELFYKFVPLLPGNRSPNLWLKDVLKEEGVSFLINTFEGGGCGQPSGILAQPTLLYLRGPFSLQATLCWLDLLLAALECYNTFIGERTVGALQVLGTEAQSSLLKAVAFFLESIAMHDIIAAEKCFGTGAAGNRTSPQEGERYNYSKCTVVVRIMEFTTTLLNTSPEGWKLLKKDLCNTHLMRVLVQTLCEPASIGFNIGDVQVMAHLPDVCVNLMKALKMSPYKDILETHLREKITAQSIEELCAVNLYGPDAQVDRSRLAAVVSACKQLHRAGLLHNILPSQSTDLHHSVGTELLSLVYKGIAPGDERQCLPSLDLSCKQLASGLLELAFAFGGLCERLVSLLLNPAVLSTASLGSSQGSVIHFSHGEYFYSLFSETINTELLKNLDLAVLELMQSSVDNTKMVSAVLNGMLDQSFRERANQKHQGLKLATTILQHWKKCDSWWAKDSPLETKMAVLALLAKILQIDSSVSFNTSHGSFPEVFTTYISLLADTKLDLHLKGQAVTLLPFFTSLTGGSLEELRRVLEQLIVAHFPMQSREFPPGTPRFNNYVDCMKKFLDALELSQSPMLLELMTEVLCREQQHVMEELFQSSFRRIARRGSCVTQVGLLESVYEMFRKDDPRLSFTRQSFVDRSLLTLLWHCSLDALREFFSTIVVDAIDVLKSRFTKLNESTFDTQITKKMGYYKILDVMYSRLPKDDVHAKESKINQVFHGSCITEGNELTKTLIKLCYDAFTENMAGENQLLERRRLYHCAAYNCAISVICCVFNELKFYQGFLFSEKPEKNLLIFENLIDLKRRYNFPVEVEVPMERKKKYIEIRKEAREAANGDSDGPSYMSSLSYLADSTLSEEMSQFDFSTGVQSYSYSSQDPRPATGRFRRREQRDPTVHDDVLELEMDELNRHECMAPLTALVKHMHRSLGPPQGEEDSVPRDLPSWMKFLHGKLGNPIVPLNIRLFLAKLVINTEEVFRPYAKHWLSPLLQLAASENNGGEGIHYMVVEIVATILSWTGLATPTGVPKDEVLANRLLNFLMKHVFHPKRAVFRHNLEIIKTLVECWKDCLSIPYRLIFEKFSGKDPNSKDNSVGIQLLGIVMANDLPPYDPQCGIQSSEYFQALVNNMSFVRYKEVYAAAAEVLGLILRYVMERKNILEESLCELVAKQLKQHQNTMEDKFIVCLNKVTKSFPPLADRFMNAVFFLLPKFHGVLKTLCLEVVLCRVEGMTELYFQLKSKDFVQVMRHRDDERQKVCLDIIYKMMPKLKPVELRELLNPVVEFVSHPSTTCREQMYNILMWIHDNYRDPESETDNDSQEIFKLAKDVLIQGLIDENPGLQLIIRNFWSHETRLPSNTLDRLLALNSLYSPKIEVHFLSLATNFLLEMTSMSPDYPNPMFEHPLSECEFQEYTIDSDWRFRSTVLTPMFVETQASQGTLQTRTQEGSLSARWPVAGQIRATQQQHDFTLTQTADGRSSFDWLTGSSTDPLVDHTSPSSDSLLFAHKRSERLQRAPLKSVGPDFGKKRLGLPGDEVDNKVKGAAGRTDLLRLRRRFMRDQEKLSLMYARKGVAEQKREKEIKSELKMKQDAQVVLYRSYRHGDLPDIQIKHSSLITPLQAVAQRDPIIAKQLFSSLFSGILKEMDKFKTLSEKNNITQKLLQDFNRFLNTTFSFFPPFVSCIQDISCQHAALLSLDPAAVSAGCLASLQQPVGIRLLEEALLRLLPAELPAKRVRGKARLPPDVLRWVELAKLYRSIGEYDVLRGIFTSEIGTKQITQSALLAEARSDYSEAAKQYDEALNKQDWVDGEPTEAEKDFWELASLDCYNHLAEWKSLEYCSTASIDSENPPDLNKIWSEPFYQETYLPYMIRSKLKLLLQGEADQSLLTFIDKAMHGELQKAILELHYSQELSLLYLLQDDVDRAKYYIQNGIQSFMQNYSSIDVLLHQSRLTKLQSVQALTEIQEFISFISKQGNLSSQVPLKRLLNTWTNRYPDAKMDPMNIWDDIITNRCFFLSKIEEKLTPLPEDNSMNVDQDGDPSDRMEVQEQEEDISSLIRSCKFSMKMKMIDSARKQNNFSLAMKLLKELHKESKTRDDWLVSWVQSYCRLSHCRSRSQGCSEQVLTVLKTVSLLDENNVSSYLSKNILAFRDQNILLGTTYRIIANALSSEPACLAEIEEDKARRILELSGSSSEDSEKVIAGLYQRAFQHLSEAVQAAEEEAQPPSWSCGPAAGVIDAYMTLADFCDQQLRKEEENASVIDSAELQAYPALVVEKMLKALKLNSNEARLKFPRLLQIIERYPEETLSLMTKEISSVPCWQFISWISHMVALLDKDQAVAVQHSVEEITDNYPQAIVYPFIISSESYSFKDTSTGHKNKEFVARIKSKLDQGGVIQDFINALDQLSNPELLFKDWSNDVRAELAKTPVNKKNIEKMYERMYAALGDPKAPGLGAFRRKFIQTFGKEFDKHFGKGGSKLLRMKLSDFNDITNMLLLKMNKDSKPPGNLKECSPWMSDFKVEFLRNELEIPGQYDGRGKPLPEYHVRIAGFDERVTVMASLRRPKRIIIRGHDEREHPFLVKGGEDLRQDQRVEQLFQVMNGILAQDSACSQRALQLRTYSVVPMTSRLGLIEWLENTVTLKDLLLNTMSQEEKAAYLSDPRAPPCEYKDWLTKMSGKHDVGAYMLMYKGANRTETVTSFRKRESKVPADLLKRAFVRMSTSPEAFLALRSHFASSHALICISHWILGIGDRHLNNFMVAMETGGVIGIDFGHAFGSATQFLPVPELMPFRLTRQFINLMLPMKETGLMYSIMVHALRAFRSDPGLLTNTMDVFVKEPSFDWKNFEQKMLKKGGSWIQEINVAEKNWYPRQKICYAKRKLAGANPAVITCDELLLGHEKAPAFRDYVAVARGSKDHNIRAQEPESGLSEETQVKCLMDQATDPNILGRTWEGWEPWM

Each compound was assayed against DNA-PK (Homo sapiens, UniProt P78527) (assay: DNA-PK inhibition assay (radiometric 33P-ATP kinase assay)). Conditions: 100 μM ATP; competitive tight-binding fit.
Assay type: biochemical
In the case of `CCc1cc(-c2cc(NC[C@@H](C)c3cccc4c(C(=O)NC)ccnc34)ncn2)cc(CC)n1` [Compound 953], the pKi was ≥ 6.52.
For `COc1ccccc1[C@H](C)CNc1cc(-c2cnc3c(cnn3C3CCN(C)CC3)c2)ncn1` [Compound 83], the pKi was ≥ 6.52.
`CCOc1ccccc1C(C)CNc1cc(-c2ccc(N3CCN(C)CC3)nc2)ncn1` (centres unmarked) [Compound 92] was tested, and the pKi was ≥ 6.52.
For `CNC(=O)c1ccnc2c([C@H](C)CNc3cc(-c4cnc(N(C)C5CCN(C)CC5)nc4)ncn3)cccc12` [Compound 1057], the pKi was ≥ 6.52.
In the case of `CCNc1ncc(-c2cc(NC[C@@H](C)c3ccc(C(=O)NC)cc3OC)ncn2)cn1` [Compound 585], the pKi was ≥ 6.52.
For `C[C@H](CNc1cc(-c2ccc(NCCN(C)C(=O)OC(C)(C)C)nc2)ncn1)c1ccnc2c1OCCO2` [Compound 498], the pKi was ≥ 6.52.
`CCc1ncc(-c2cc(NC[C@@H](C)c3cccc4c(C(=O)NC)ccnc34)ncn2)cn1` [Compound 829] was tested, and the pKi was ≥ 6.52.
With `CNC(=O)c1ccnc2c([C@H](C)CNc3cc(-c4ccc(OC(C)C)nc4)ncn3)cccc12` [Compound 959] the pKi was ≥ 6.52.
`CNC(=O)c1c(F)cnc2c([C@H](C)CNc3cc(-c4cnc(C)s4)ncn3)cccc12` [Compound 828] was tested, and the pKi was ≥ 6.52.
With `CNC(=O)c1c(F)cnc2c([C@H](C)CNc3cc(-c4cnc(COC)nc4)ncn3)cccc12` [Compound 999] the pKi was ≥ 6.52.
For `CCOc1ccc(-c2cc(NC[C@@H](C)c3ccc(F)c4c(C(=O)NC)ccnc34)ncn2)cn1` [Compound 934], the pKi was ≥ 6.52.
For `CNC(=O)c1c(F)cnc2c([C@H](C)CNc3cc(-c4ccc(C5(N)CC5)nc4)ncn3)cccc12` [Compound 941], the pKi was ≥ 6.52.
In the case of `CNC(=O)c1ccnc2c([C@H](C)CNc3cc(-c4ccc(NC(=O)OC)cc4)ncn3)cccc12` [Compound 750], the pKi was ≥ 6.52.
In the case of `C[C@H](CNc1cc(-c2cncc(OC(F)F)c2)ncn1)c1ccnc2c1OCCO2` [Compound 560], the pKi was ≥ 6.52.
In the case of `C[C@H](CNc1cc(-c2cnc3c(cnn3CCO)c2)ncn1)c1cccc2c(C(F)F)c(F)cnc12` [Compound 814], the pKi was ≥ 6.52.
`CNC(=O)c1c(F)cnc2c([C@H](C)CNc3cc(-c4cnc(C5CCOCC5)nc4)ncn3)cccc12` [Compound 833] was tested, and the pKi was ≥ 6.52.
In the case of `CCOc1ccccc1C(C)CNc1cc(-c2ccc(C)nc2)ncn1` (centres unmarked) [Compound 91], the pKi was ≥ 6.52.
In the case of `CNC(=O)c1ccc([C@H](C)CNc2cc(-c3ccc(N(C)CCOC)nc3)ncn2)c(OC)c1` [Compound 370], the pKi was ≥ 6.52.
With `COc1sccc1C(C)CNc1cc(-c2cnc3c(cnn3CC3CC3)c2)ncn1` (centres unmarked) [Compound 266] the pKi was ≥ 6.52.
In the case of `C[C@H](CNc1cc(-c2cnc(N)c(Cl)c2)ncn1)c1ccnc2c1OCCO2` [Compound 553], the pKi was ≥ 6.52.
In the case of `COc1ccccc1[C@H](C)CNc1cc(-c2ccnc(Nc3nc[nH]n3)c2)ncn1` [Compound 207], the pKi was ≥ 6.52.
`COc1ccccc1CCNc1cc(-c2cnc3c(ccn3CC3CCOCC3)c2)ncn1` [Compound 41] was tested, and the pKi was ≥ 6.52.
For `COc1sc(C(=O)O)cc1C(C)CNc1cc(-c2ccc(C)nc2)ncn1` (centres unmarked) [Compound 291], the pKi was ≥ 6.52.
With `CNC(=O)c1ccnc2c([C@H](C)CNc3cc(N4CCn5c(C6CCN(C)CC6)cnc5C4)ncn3)cccc12` [Compound 826] the pKi was ≥ 6.52.
For `CNC(=O)c1ccnc2c([C@H](C)CNc3cc(-c4cncc(OC)c4)ncn3)cccc12` [Compound 878], the pKi was ≥ 6.52.
`CNC(=O)c1ccc([C@H](C)CNc2cc(-c3ccnc4c3ccn4C3COC3)ncn2)c(OC)c1` [Compound 479] was tested, and the pKi was ≥ 6.52.
`C=C(CNc1cc(-c2ccc(C)nc2)ncn1)c1cnc(N)nc1OC` [Compound 453] was tested, and the pKi was ≥ 6.52.
With `CNC(=O)c1ccnc2c([C@H](C)CNc3cc(-c4cnc(NC5CCN(CC(F)F)CC5)nc4)ncn3)cccc12` [Compound 1034] the pKi was ≥ 6.52.
With `Cc1ccc(-c2cc(NCC(C)c3ccccc3OCC3CCCC3)ncn2)cn1` (centres unmarked) [Compound 194] the pKi was ≥ 6.52.
`COc1ccccc1CCNc1cc(-c2cnc3c(cnn3CS(C)(=O)=O)c2)ncn1` [Compound 97] was tested, and the pKi was ≥ 6.52.
With `CC(CNc1cc(-c2cnc3c(cnn3CCO)c2)ncn1)c1ccc(F)cc1OC1CC1` (centres unmarked) [Compound 275] the pKi was ≥ 6.52.
For `CNC(=O)c1ccnc2c([C@H](C)CNc3cc(-c4ccc5c(c4)N(C)CCO5)ncn3)cccc12` [Compound 864], the pKi was ≥ 6.52.
`Cc1ccc(-c2cc(NCC(C)c3cnccc3OC3CC3)ncn2)cn1` (centres unmarked) [Compound 165] was tested, and the pKi was ≥ 6.52.
With `C[C@H](CNc1cc(-c2ccc(N(C)C)nc2)ncn1)c1ccnc2c1OCCO2` [Compound 460] the pKi was ≥ 6.52.
With `CNC(=O)c1ccnc2c([C@H](C)CNc3cc(-c4ccc(N(C)CCC(C)(C)O)nc4)ncn3)cccc12` [Compound 717] the pKi was ≥ 6.52.
For `COc1ccc(C)cc1CCNc1cc(-c2ccc(C)nc2)ncn1` [Compound 77], the pKi was ≥ 6.52.
In the case of `COC(=O)c1ccc(C(C)CNc2cc(-c3ccc(N4CCN(C(C)=O)CC4)nc3)ncn2)c(OC)c1` (centres unmarked) [Compound 116], the pKi was ≥ 6.52.
In the case of `CNC(=O)c1ccnc2c([C@H](C)CNc3cc(-c4ccc(N5CCN(C(C)C)CC5)nc4)ncn3)cccc12` [Compound 722], the pKi was ≥ 6.52.
With `CNC(=O)c1ccnc2c([C@H](C)CNc3cc(-c4ccc(Nc5cnn(CCOC)c5)nc4)ncn3)cccc12` [Compound 737] the pKi was ≥ 6.52.
For `CNC(=O)c1ccnc2c([C@H](C)CNc3cc(-c4ccc(C5(C#N)CC5)cc4)ncn3)cccc12` [Compound 681], the pKi was ≥ 6.52.
In the case of `CNC(=O)c1ccc([C@H](C)CNc2cc(-c3ccc(C(=O)N4CCN(C)CC4)cc3)ncn2)c(OC)c1` [Compound 309], the pKi was ≥ 6.52.
`CNC(=O)c1ccnc2c([C@H](C)CNc3cc(-c4ccc(F)cc4)ncn3)cccc12` [Compound 684] was tested, and the pKi was ≥ 6.52.
In the case of `CNC(=O)c1c(F)cnc2c([C@H](C)CNc3cc(-c4cnc(N(C)C5CCN(C)CC5)nc4)ncn3)cccc12` [Compound 1058], the pKi was ≥ 6.52.
With `CNC(=O)c1ccnc2c([C@H](C)CNc3cc(-c4ccc(C(C)=O)cc4)ncn3)cccc12` [Compound 590] the pKi was ≥ 6.52.
For `CNC(=O)c1ccnc2c([C@H](C)CNc3cc(-c4ccc(C)cc4)ncn3)cccc12` [Compound 671], the pKi was ≥ 6.52.
In the case of `COc1ccccc1[C@H](C)CNc1cc(-c2ccc(NCCO)nc2)ncn1` [Compound 118], the pKi was ≥ 6.52.
In the case of `C[C@H](CNc1cc(-c2cnc3c(cnn3C3CN(C(=O)OC(C)(C)C)C3)c2)ncn1)c1ccnc2c1OCCO2` [Compound 526], the pKi was ≥ 6.52.
With `CC(CNc1cc(-c2cnc3c(cnn3CCO)c2)ncn1)c1cccc2nccnc12` (centres unmarked) [Compound 401] the pKi was ≥ 6.52.
In the case of `CNC(=O)c1ccc([C@H](C)CNc2cc(-c3cnc(NC)nc3)ncn2)c(OC)c1` [Compound 304], the pKi was ≥ 6.52.
For `CNC(=O)c1ccnc2c([C@H](C)CNc3cc(-c4ccc(C(C)OC)cc4)ncn3)cccc12` (some centres unmarked) [Compound 811], the pKi was ≥ 6.52.
`CNC(=O)c1ccnc2c([C@H](C)CNc3cc(-c4ccc(NCCN5CCCC5=O)nc4)ncn3)cccc12` [Compound 703] was tested, and the pKi was ≥ 6.52.
`CCNc1ccc(-c2cc(NC[C@@H](C)c3cccc4c(C(=O)NC)ccnc34)ncn2)cn1` [Compound 581] was tested, and the pKi was ≥ 6.52.
For `C[C@H](CNc1cc(-c2ccc(F)nc2)ncn1)c1ccnc2c1OCC2` [Compound 602], the pKi was ≥ 6.52.
In the case of `CNC(=O)c1ccc([C@H](C)CNc2cc(-c3ccc(NCCCOC)nc3)ncn2)c(OC)c1` [Compound 375], the pKi was ≥ 6.52.
With `CNC(=O)c1ccnc2c([C@H](C)CNc3cc(-c4ccc(=O)n(C)c4)ncn3)cccc12` [Compound 655] the pKi was ≥ 6.52.
`COc1ccc(CCNc2cc(-c3ccc4ncccc4c3)ncn2)c(OC)c1OC` [Compound 5] was tested, and the pKi was ≥ 6.52.
With `CNC(=O)c1ccnc2c([C@H](C)CNc3cc(-c4ccc5c(c4)OCCN5C)ncn3)cccc12` [Compound 843] the pKi was ≥ 6.52.
In the case of `Cc1ccc(-c2cc(NC[C@@H](C)c3ccnc4c3OCC4(C)C)ncn2)cn1` [Compound 583], the pKi was ≥ 6.52.
For `CNC(=O)c1ccnc2c([C@H](C)CNc3cc(-c4cnc(F)c(C)c4)ncn3)cccc12` [Compound 951], the pKi was ≥ 6.52.
In the case of `CNC(=O)c1ccc(C(C)CNc2cc(-c3cnc4c(cnn4CC#N)c3)ncn2)c(OC)c1` (centres unmarked) [Compound 441], the pKi was ≥ 6.52.
In the case of `CC(CNc1cc(-c2cnc3c(cnn3CCO)c2)ncn1)c1cncc2c1OCCC2` (centres unmarked) [Compound 452], the pKi was ≥ 6.52.
With `C=C(CNc1cc(-c2ccc(C)nc2)ncn1)c1ccccc1OC` [Compound 298] the pKi was ≥ 6.52.
With `CNC(=O)c1ccnc2c([C@H](C)CNc3cc(-c4ccc(C(C)O)nc4)ncn3)cccc12` (some centres unmarked) [Compound 730] the pKi was ≥ 6.52.
`CNC(=O)c1c(F)cnc2c([C@H](C)CNc3cc(-c4cnc(N(C)C5CCN(CC(F)(F)F)CC5)nc4)ncn3)cccc12` [Compound 1082] was tested, and the pKi was ≥ 6.52.
With `CNC(=O)c1ccnc2c([C@H](C)CNc3cc(-c4ccc(CO)s4)ncn3)cccc12` [Compound 860] the pKi was ≥ 6.52.
With `CCOc1ccc(-c2cc(NC[C@@H](C)c3cccc4c(C(=O)NC)ccnc34)ncn2)cn1` [Compound 933] the pKi was ≥ 6.52.
With `CNC(=O)c1c(F)cnc2c([C@H](C)CNc3cc(-c4cnc(OC)c(CO)c4)ncn3)cccc12` [Compound 884] the pKi was ≥ 6.52.
With `CCn1ccc2cc(-c3cc(NCCc4ccccc4OC)ncn3)cnc21` [Compound 35] the pKi was ≥ 6.52.
For `Cc1ncc(-c2cc(NC[C@@H](C)c3cccc4c(C(=O)O)ccnc34)ncn2)cn1` [Compound 686], the pKi was ≥ 6.52.
With `C[C@H](CNc1cc(-c2ccc(S(C)(=O)=O)nc2)ncn1)c1ccnc2c1OCC2` [Compound 598] the pKi was ≥ 6.52.
For `Cc1ccc(-c2cc(NCC(C)c3cccc4[nH]cnc34)ncn2)cn1` (centres unmarked) [Compound 229], the pKi was ≥ 6.52.
In the case of `CNC(=O)c1ccnc2c([C@H](C)CNc3cc(-c4cnc(C(C)(C)OC)nc4)ncn3)ccc(F)c12` [Compound 929], the pKi was ≥ 6.52.
With `[2H]c1nc(C)ncc1-c1cc(NC[C@@H](C)c2cccc3c(C(=O)NC)ccnc23)ncn1` [Compound 1070] the pKi was ≥ 6.52.
`CNC(=O)c1c(F)cnc2c([C@H](C)CNc3cc(-c4cncc(C#N)c4)ncn3)cccc12` [Compound 963] was tested, and the pKi was ≥ 6.52.
`Cc1ccc(-c2cc(NCC(C)c3cccnc3OC3CCC3)ncn2)cn1` (centres unmarked) [Compound 247] was tested, and the pKi was ≥ 6.52.

Same assay, conditions: 100 μM ATP; competitive tight-binding fit; listed as compound 503
For `CC(O)Cn1ncc2cc(-c3cc(NC[C@@H](C)c4ccnc5c4OCCO5)ncn3)cnc21` (single isomer, unassigned) [Compound 503], the pKi was ≥ 6.52.

Same assay, conditions: 100 μM ATP; competitive tight-binding fit; listed as compound 988
`CNC(=O)c1c(F)cnc2c([C@H](C)CNc3cc(-c4cnc5c(c4)COC5(C)C)ncn3)cccc12` [Compound 988] was tested, and the pKi was ≥ 6.52.
